Results: the supplement of paper PMC8728848
The list shows a part of the results.

Key:
Assay in all cases: glycan array binding signal (z-score within array); higher = stronger binding
Details in all cases: glycan notation: IUPAC condensed, linker removed
[1] = molecular target: Fuc(a1-2)Gal(b1-4)[Fuc(a1-3)]GlcNAc(b1-2)[Fuc(a1-2)Gal(b1-4)[Fuc(a1-3)]GlcNAc(b1-4)]Man(a1-3)[Fuc(a1-2)Gal(b1-4)[Fuc(a1-3)]GlcNAc(b1-2)Man(a1-6)]Man(b1-4)GlcNAc(b1-4)GlcNAc
In short: (§1)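 Glycan array binding is given as a within-array Z-score, which can be read as non-binding when negative. The arrays, 3228 of them, came from the Consortium for Functional Glycomics database and were retained only where the protein sequence was available. Z-scores were averaged across arrays of the same protein sequence at different concentrations or buffers and across linkers.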

[2] = molecular target: Fuc(a1-2)Gal(b1-4)[Fuc(a1-3)]GlcNAc(b1-3)Gal(b1-4)[Fuc(a1-3)]GlcNAc
In short: as §1

[3] = molecular target: Fuc(a1-2)Gal(b1-4)[Fuc(a1-3)]GlcNAc(b1-3)Gal(b1-4)[Fuc(a1-3)]GlcNAc(b1-3)Gal(b1-4)[Fuc(a1-3)]GlcNAc
In short: as §1

[4] = molecular target: Fuc(a1-2)Gal(b1-4)[Fuc(a1-3)]GlcNAc(b1-3)GalNAc
In short: as §1

[5] = molecular target: Fuc(a1-2)Gal6S(b1-4)Glc
In short: as §1

[6] = molecular target: Fuc(a1-2)Gal6S(b1-4)Glc6S
In short: as §1

[7] = molecular target: Fuc(a1-2)Gal6S(b1-4)GlcNAc
In short: as §1

[8] = molecular target: Fuc(a1-2)[Gal(a1-3)]Gal
In short: as §1

[9] = molecular target: Fuc(a1-2)[Gal(a1-3)]Gal(b1-3)GlcNAc
In short: as §1

[10] = molecular target: Fuc(a1-2)[Gal(a1-3)]Gal(b1-3)GlcNAc(b1-2)Man(a1-3)[Fuc(a1-2)[Gal(a1-3)]Gal(b1-3)GlcNAc(b1-2)Man(a1-6)]Man(b1-4)GlcNAc(b1-4)GlcNAc
In short: as §1

[11] = molecular target: Fuc(a1-2)[Gal(a1-3)]Gal(b1-3)GlcNAc(b1-3)GalNAc
In short: as §1

[12] = molecular target: Fuc(a1-2)[Gal(a1-3)]Gal(b1-4)Glc
In short: as §1

[13] = molecular target: Fuc(a1-2)[Gal(a1-3)]Gal(b1-4)GlcNAc
In short: as §1

[14] = molecular target: Fuc(a1-2)[Gal(a1-3)]Gal(b1-4)GlcNAc(b1-2)Man(a1-3)[Fuc(a1-2)[Gal(a1-3)]Gal(b1-4)GlcNAc(b1-2)Man(a1-6)]Man(b1-4)GlcNAc(b1-4)GlcNAc
In short: as §1

[15] = molecular target: Fuc(a1-2)[Gal(a1-3)]Gal(b1-4)GlcNAc(b1-2)Man(a1-3)[Fuc(a1-2)[Gal(a1-3)]Gal(b1-4)GlcNAc(b1-2)Man(a1-6)]Man(b1-4)GlcNAc(b1-4)[Fuc(a1-6)]GlcNAc
In short: as §1

[16] = molecular target: Fuc(a1-2)[Gal(a1-3)]Gal(b1-4)GlcNAc(b1-3)GalNAc
In short: as §1

[17] = molecular target: Fuc(a1-2)[Gal(a1-3)]Gal(b1-4)[Fuc(a1-3)]Glc
In short: as §1

[18] = molecular target: Fuc(a1-2)[Gal(a1-3)]Gal(b1-4)[Fuc(a1-3)]GlcNAc
In short: as §1

[19] = molecular target: Fuc(a1-2)[Gal(a1-3)]Gal(b1-4)[Fuc(a1-3)]GlcNAc(b1-3)GalNAc
In short: as §1

[20] = molecular target: Fuc(a1-2)[Gal(a1-4)]Gal(b1-4)GlcNAc
In short: as §1

[21] = molecular target: Fuc(a1-2)[GalNAc(a1-3)]Gal
In short: as §1

[22] = molecular target: Fuc(a1-2)[GalNAc(a1-3)]Gal(b1-3)GalNAc(a1-3)[Fuc(a1-2)]Gal(b1-4)GlcNAc
In short: as §1

[23] = molecular target: Fuc(a1-2)[GalNAc(a1-3)]Gal(b1-3)GlcNAc
In short: as §1

[24] = molecular target: Fuc(a1-2)[GalNAc(a1-3)]Gal(b1-3)GlcNAc(b1-2)Man(a1-3)[Fuc(a1-2)[GalNAc(a1-3)]Gal(b1-3)GlcNAc(b1-2)Man(a1-6)]Man(b1-4)GlcNAc(b1-4)GlcNAc
In short: as §1

[25] = molecular target: Fuc(a1-2)[GalNAc(a1-3)]Gal(b1-3)GlcNAc(b1-3)GalNAc
In short: as §1

[26] = molecular target: Fuc(a1-2)[GalNAc(a1-3)]Gal(b1-4)Glc
In short: as §1

[27] = molecular target: Fuc(a1-2)[GalNAc(a1-3)]Gal(b1-4)GlcNAc
In short: as §1

[28] = molecular target: Fuc(a1-2)[GalNAc(a1-3)]Gal(b1-4)GlcNAc(b1-2)Man(a1-3)[Fuc(a1-2)[GalNAc(a1-3)]Gal(b1-4)GlcNAc(b1-2)Man(a1-6)]Man(b1-4)GlcNAc(b1-4)GlcNAc
In short: as §1

[29] = molecular target: Fuc(a1-2)[GalNAc(a1-3)]Gal(b1-4)GlcNAc(b1-3)Gal(b1-4)GlcNAc
In short: as §1

[30] = molecular target: Fuc(a1-2)[GalNAc(a1-3)]Gal(b1-4)GlcNAc(b1-3)Gal(b1-4)GlcNAc(b1-3)Gal(b1-4)GlcNAc
In short: as §1

B1: rPitB (Streptococcus pneumoniae), A0A0I7U739 (protein)
chain: MSEIEIINAKKIYHDVPVIENLNITIPKGSLFTLLGASGCGKTTLLRMIAGFNSIKDGEFYFDDTKINNMEPSKRNIGLVFQNYAIFPHLTVRDNVAFGLMQKKVPKEELIQQTNKYLELMQIAQYAD
glycan array binding signal (z-score) [1]: 1.33
glycan array binding signal (z-score) [2]: 0.882
glycan array binding signal (z-score) [3]: 0.171
glycan array binding signal (z-score) [4]: 1.42
glycan array binding signal (z-score) [5]: -0.271
glycan array binding signal (z-score) [6]: -0.014
glycan array binding signal (z-score) [7]: -0.041
glycan array binding signal (z-score) [8]: 0.024
glycan array binding signal (z-score) [9]: -0.113
glycan array binding signal (z-score) [10]: 0.062
glycan array binding signal (z-score) [11]: -0.211
glycan array binding signal (z-score) [12]: 1.11
glycan array binding signal (z-score) [13]: -0.419
glycan array binding signal (z-score) [14]: -0.311
glycan array binding signal (z-score) [15]: 0.884
glycan array binding signal (z-score) [16]: -0.866
glycan array binding signal (z-score) [17]: 0.03
glycan array binding signal (z-score) [18]: 1.26
glycan array binding signal (z-score) [19]: 0.687
glycan array binding signal (z-score) [20]: -0.108
glycan array binding signal (z-score) [21]: -0.263
glycan array binding signal (z-score) [22]: -0.133
glycan array binding signal (z-score) [23]: 0.206
glycan array binding signal (z-score) [24]: -0.52
glycan array binding signal (z-score) [25]: 0.403
glycan array binding signal (z-score) [26]: -0.271
glycan array binding signal (z-score) [27]: -0.509
glycan array binding signal (z-score) [28]: 0.481
glycan array binding signal (z-score) [29]: -0.609
glycan array binding signal (z-score) [30]: -0.442
